Our source for the T/C and survivor count values is PubChem BioAssay AID250 (DTP/NCI, 2004).

The list does not hold the whole screen: it is rich in T/C values a quarter to a half above the control, in often repeated tests (any T/C) and in doses without a T/C. Other doses and runs of a compound stand elsewhere. T/C gives the treated animals as a percentage of the vehicle group. Some doses have a count of surviving animals in place of a T/C: the source holds a T/C of zero for them, seemingly a mark for toxic or unscored doses. For part of these data: Counts of survivors are from the toxicity check (mostly the fifth day) where no day follows; animals may have died later. Schedule codes are those of the source, read here as Q, the interval in days (D) or hours (H), X, the number of doses. Some schedules carry Z or #; the key to these is not given. Some doses were run more than once; the values are given in rising order. For part of these data: Where survival is the endpoint, the PubChem record calls one and a half times the control and up active, and a quarter to a half above the control has no call in these data; cut-offs in other NCI protocols can differ. Some T/C values are followed by the survivors on the day toxicity was checked, most often the fifth; without a count, all were alive then.

For assay [1], the system named is BDF1 mice, L1210 leukemia sc. Put plainly: NCI In Vivo Anticancer Drug Screen. Data for tumor model L1210 Leukemia (subcutaneous) in B6D2F1 (BDF1) mice. Particulars: higher T/C = longer survival. The essentials: (§1)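 Read-out: T/C ratio, i.e. survival or tumor size in treated mice over that in vehicle-treated controls, from mice bearing transplantable tumors.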
The test system of assay [2] is BDF1 mice, L1210 leukemia sc, survival T/C. The description is as above. Particulars: T/C endpoint: median survival time, schedule: Q01DX Z (sc), higher T/C = longer survival. The essentials:
as §1

Setting [3] is: T/C endpoint: median survival time, dose: 39.0 mg/kg/injection, schedule: Q01DX Z (sc), vehicle: methylcellulose (MC).
[4] abbreviates: T/C endpoint: median survival time, dose: 65.0 mg/kg/injection, schedule: Q01DX Z (sc), vehicle: methylcellulose (MC).
Setting [5] is: T/C endpoint: median survival time, dose: 108.0 mg/kg/injection, schedule: Q01DX Z (sc), vehicle: methylcellulose (MC).
[6] abbreviates: T/C endpoint: median survival time, dose: 180.0 mg/kg/injection, schedule: Q01DX Z (sc), vehicle: methylcellulose (MC).

As for `C[n+]1ccc(Nc2ccc(NC(=O)c3ccc(Nc4cc[n+](C)c5ccc(N)cc45)cc3N)cc2)cc1`, the T/C was 144 % of control in assay [1] (T/C endpoint: median survival time, dose: 1.0 mg/kg/injection, schedule: Q03HX024 (ip), vehicle: water); 130 % of control in assay [1] (T/C endpoint: median survival time, dose: 8.0 mg/kg/injection, schedule: Q03HX008 (sc), vehicle: water); 140 % of control in assay [1] (T/C endpoint: median survival time, dose: 16.0 mg/kg/injection, schedule: Q04DX003 (sc), vehicle: water); 130 % of control in assay [1] (T/C endpoint: median survival time, dose: 32.0 mg/kg/injection, schedule: Q01DX001 (sc), vehicle: water); 145 % of control in assay [1] (T/C endpoint: median survival time, dose: 64.0 mg/kg/injection, schedule: Q03HX008 (sc), vehicle: water).
Turning to `O=NN(CCCl)C(=O)NC1CC2CCC1C2` (centres undefined), the T/C in assay [1] (T/C endpoint: median survival time, dose: 180.0 mg/kg/injection, schedule: Q01DX Z (oral), vehicle: carboxymethylcellulose (CMC)) is 142 % of control.
As for `O=C(Nc1ccc(NC2=NCCN2)cc1)c1ccc(C(=O)Nc2ccc(NC3=NCCN3)cc2)cc1`, the T/C in assay [1] (T/C endpoint: median survival time, dose: 3.0 mg/kg/injection, schedule: Q01DX Z (sc), vehicle: water) was 145 % of control; in assay [1] (T/C endpoint: median survival time, dose: 23.0 mg/kg/injection, schedule: Q01DX Z (sc), vehicle: water), 140 % of control; in assay [1] (T/C endpoint: median survival time, dose: 39.0 mg/kg/injection, schedule: Q01DX Z (sc), vehicle: water), 130 % of control.
In the case of `CC(=O)OCC1OC(n2ccc(N)nc2=O)C(OC(C)=O)C1OC(C)=O` (centres undefined), the T/C in assay [1] (T/C endpoint: median survival time, dose: 320.0 mg/kg/injection, schedule: Q01DX Z (sc), vehicle: carboxymethylcellulose (CMC)) was 135 % of control; in assay [1] (T/C endpoint: median survival time, dose: 640.0 mg/kg/injection, schedule: Q01DX Z (oral), vehicle: carboxymethylcellulose (CMC)), 140 % of control.
With `Nc1nc(SCc2ccccc2)c2[nH]cnc2n1`, the T/C in assay [1] (setting [3]) is 144 % of control; in assay [1] (setting [4]) it was 133 % of control; in assay [1] (setting [5]) it was 133 % of control.
As to `O=NN(CCCl)C(=O)NC1CCCCC1`, the T/C in assay [1] (T/C endpoint: median survival time, dose: 4.0 mg/kg/injection, schedule: Q01DX009 (ip), vehicle: other) is 134 % of control; in assay [1] (T/C endpoint: median survival time, dose: 16.0 mg/kg/injection, schedule: Q01DX009 (ip), vehicle: other), 148 % of control.
For the molecule `CCCCSc1ncnc2nc[nH]c12`, the T/C in assay [1] (T/C endpoint: median survival time, dose: 64.8 mg/kg/injection, schedule: Q01DX Z (sc), vehicle: methylcellulose (MC)) is 145 % of control; in assay [1] (setting [5]) it was 145 % of control; in assay [1] (setting [6]), 145 % of control; in assay [1] (T/C endpoint: median survival time, dose: 300.0 mg/kg/injection, schedule: Q01DX Z (sc), vehicle: methylcellulose (MC)) it was 136 % of control [9 of 10 alive].
Consider `CCCn1cnc2c(=S)nc(N)[nH]c21`, for which the T/C is 127 % of control in assay [1] (T/C endpoint: median survival time, dose: 14.0 mg/kg/injection, schedule: Q01DX Z (sc), vehicle: methylcellulose (MC)); 144 % of control in assay [1] (T/C endpoint: median survival time, dose: 23.0 mg/kg/injection, schedule: Q01DX Z (sc), vehicle: methylcellulose (MC)); 133 % of control in assay [1] (setting [3]).
Turning to `CN(Cc1cnc2nc(N[Si](C)(C)C)nc(N[Si](C)(C)C)c2n1)c1ccc(C(=O)NC(CCC(=O)O[Si](C)(C)C)C(=O)O[Si](C)(C)C)cc1` (centres undefined), the T/C in assay [1] (T/C endpoint: mean survival time, dose: 4.0 mg/kg/injection, schedule: Q04DX003 (ip), vehicle: Klucel (hydroxypropylcellulose) (HPC)) is 144 % of control; in assay [1] (T/C endpoint: mean survival time, dose: 16.0 mg/kg/injection, schedule: Q04DX003 (ip), vehicle: Klucel (hydroxypropylcellulose) (HPC)), 148 % of control.
On to `C1CN1c1nc(N2CC2)nc(N2CC2)n1`, for which, in assay [1] (T/C endpoint: median survival time, dose: 3.0 mg/kg/injection, schedule: Q01DX Z (sc), vehicle: saline), the T/C was 130 % of control.
Take `CCCOC1=C(N2CC2)C(=O)C(OCCC)=C(N2CC2)C1=O`: the T/C in assay [1] (T/C endpoint: median survival time, dose: 23.0 mg/kg/injection, schedule: Q01DX Z (sc), vehicle: saline) was 125 % of control; in assay [1] (T/C endpoint: median survival time, dose: 39.0 mg/kg/injection, schedule: Q01DX Z (sc), vehicle: saline), 135 % of control; in assay [1] (T/C endpoint: median survival time, dose: 65.0 mg/kg/injection, schedule: Q01DX Z (sc), vehicle: saline) it was 130 % of control.
`O=C(Nc1ccc(C2=NCCN2)cc1)c1ccc(NC(=O)c2ccc(C3=NCCN3)cc2)cc1`: the T/C is 145 % of control in assay [1] (setting [4]) and 130 % of control in assay [1] (setting [5]).
As to `Nc1nc(=S)c2ncn(C3CC(O)C(CO)O3)c2[nH]1` (centres undefined), the T/C in assay [1] (T/C endpoint: median survival time, dose: 300.0 mg/kg/injection, schedule: Q02DX005 (sc), vehicle: saline, evaluated on day 7) is 145 % of control; in assay [1] (T/C endpoint: median survival time, dose: 300.0 mg/kg/injection, schedule: Q02DX005 (sc), vehicle: saline, evaluated on day 30), 145 % of control.
`Nc1nc(=S)c2ncn(C3OC(COC(=O)c4ccccc4)C(OC(=O)c4ccccc4)C3OC(=O)c3ccccc3)c2[nH]1` (centres undefined): the T/C was 125 % of control in assay [1] (setting [4]) and 130 % of control in assay [1] (setting [6]).
As for `ClCCN(CCCl)CCNc1ccnc2cc(Cl)ccc12`, the survivor count in assay [2] (dose: 0.65 mg/kg/injection, vehicle: water) is given as 5 of 10; in assay [2] (dose: 1.08 mg/kg/injection, vehicle: methylcellulose (MC)), 3 of 10; in assay [2] (dose: 1.08 mg/kg/injection, vehicle: olive oil, sesame oil, peanut oil), 4 of 10; in assay [2] (dose: 1.08 mg/kg/injection, vehicle: water) it was 5 of 10; in assay [2] (dose: 1.8 mg/kg/injection, vehicle: methylcellulose (MC)), 6 of 10; in assay [2] (dose: 1.8 mg/kg/injection, vehicle: olive oil, sesame oil, peanut oil), 5 of 10. Besides, the survivor count in assay [2] (dose: 1.8 mg/kg/injection, vehicle: water) was 4 of 10 and 5 of 10; in assay [2] (dose: 3.0 mg/kg/injection, vehicle: methylcellulose (MC)), 5 of 10; in assay [2] (dose: 3.0 mg/kg/injection, vehicle: olive oil, sesame oil, peanut oil), 5 of 10; in assay [2] (dose: 3.0 mg/kg/injection, vehicle: water), 4 of 10; in assay [2] (dose: 5.0 mg/kg/injection, vehicle: methylcellulose (MC)) it was 3 of 10; in assay [2] (dose: 5.0 mg/kg/injection, vehicle: olive oil, sesame oil, peanut oil) it was 4 of 10. For the same molecule, the survivor count in assay [2] (dose: 5.0 mg/kg/injection, vehicle: water) is 5 of 10 and 6 of 10; in assay [2] (dose: 8.4 mg/kg/injection, vehicle: methylcellulose (MC)), 4 of 10; in assay [2] (dose: 8.4 mg/kg/injection, vehicle: olive oil, sesame oil, peanut oil), 4 of 10; in assay [2] (dose: 8.4 mg/kg/injection, vehicle: water), 4 of 10; in assay [2] (dose: 14.0 mg/kg/injection, vehicle: methylcellulose (MC)), 5 of 10; in assay [2] (dose: 14.0 mg/kg/injection, vehicle: olive oil, sesame oil, peanut oil) it was 1 of 10. Further, the survivor count in assay [2] (dose: 14.0 mg/kg/injection, vehicle: water) was 3 of 10 and 5 of 10; in assay [2] (dose: 23.0 mg/kg/injection, vehicle: methylcellulose (MC)), 3 of 10; in assay [2] (dose: 23.0 mg/kg/injection, vehicle: olive oil, sesame oil, peanut oil) it was 4 of 10; in assay [2] (dose: 23.0 mg/kg/injection, vehicle: water), 3 of 10; in assay [2] (dose: 39.0 mg/kg/injection, vehicle: methylcellulose (MC)), 2 of 10; in assay [2] (dose: 39.0 mg/kg/injection, vehicle: olive oil, sesame oil, peanut oil), 6 of 10. Further, the survivor count in assay [2] (dose: 39.0 mg/kg/injection, vehicle: water) was 2 of 10; in assay [2] (dose: 65.0 mg/kg/injection, vehicle: methylcellulose (MC)) it was 0 of 10; in assay [2] (dose: 65.0 mg/kg/injection, vehicle: water) it was 0 of 10.
For `CCOc1ccc(Nc2ncnc3nc[nH]c23)cc1CN(CCCl)CCCl`, the survivor count was 4 of 10 in assay [2] (dose: 23.0 mg/kg/injection, vehicle: saline); 6 of 10 in assay [2] (dose: 39.0 mg/kg/injection, vehicle: saline); 5 of 10 in assay [2] (dose: 65.0 mg/kg/injection, vehicle: saline); 0 of 10 in assay [2] (dose: 108.0 mg/kg/injection, vehicle: saline); 1 of 10 in assay [2] (dose: 180.0 mg/kg/injection, vehicle: saline); 0 of 10 in assay [2] (dose: 300.0 mg/kg/injection, vehicle: saline). Also, in assay [2] (dose: 500.0 mg/kg/injection, vehicle: saline), the survivor count is on record as 0 of 10.
